Data: the supplement of paper PMC12823440, “Inhibitors supercharge kinase turnover through native proteolytic circuits” (Nature, 2025)
Counter-ions that a name gives are not always drawn. This is one part of the list. The calls rarely recur for the same compound in another form.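 In K562 cells expressing nanoluciferase-fused kinases, luminescence was recorded at 4 h intervals between 2 and 18 h, normalized as percent of control with DMSO at 100% and a positive control at 0%. A significant (2 sigma) signal drop marks a time point as decreased. The authors' rule for a hit is not shown and takes in more than the number of time points.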

Amino acid sequences for entries named in this document (tags omitted). A change or cut given only in a name is not applied to a line headed by its entry.
UniProt P23458: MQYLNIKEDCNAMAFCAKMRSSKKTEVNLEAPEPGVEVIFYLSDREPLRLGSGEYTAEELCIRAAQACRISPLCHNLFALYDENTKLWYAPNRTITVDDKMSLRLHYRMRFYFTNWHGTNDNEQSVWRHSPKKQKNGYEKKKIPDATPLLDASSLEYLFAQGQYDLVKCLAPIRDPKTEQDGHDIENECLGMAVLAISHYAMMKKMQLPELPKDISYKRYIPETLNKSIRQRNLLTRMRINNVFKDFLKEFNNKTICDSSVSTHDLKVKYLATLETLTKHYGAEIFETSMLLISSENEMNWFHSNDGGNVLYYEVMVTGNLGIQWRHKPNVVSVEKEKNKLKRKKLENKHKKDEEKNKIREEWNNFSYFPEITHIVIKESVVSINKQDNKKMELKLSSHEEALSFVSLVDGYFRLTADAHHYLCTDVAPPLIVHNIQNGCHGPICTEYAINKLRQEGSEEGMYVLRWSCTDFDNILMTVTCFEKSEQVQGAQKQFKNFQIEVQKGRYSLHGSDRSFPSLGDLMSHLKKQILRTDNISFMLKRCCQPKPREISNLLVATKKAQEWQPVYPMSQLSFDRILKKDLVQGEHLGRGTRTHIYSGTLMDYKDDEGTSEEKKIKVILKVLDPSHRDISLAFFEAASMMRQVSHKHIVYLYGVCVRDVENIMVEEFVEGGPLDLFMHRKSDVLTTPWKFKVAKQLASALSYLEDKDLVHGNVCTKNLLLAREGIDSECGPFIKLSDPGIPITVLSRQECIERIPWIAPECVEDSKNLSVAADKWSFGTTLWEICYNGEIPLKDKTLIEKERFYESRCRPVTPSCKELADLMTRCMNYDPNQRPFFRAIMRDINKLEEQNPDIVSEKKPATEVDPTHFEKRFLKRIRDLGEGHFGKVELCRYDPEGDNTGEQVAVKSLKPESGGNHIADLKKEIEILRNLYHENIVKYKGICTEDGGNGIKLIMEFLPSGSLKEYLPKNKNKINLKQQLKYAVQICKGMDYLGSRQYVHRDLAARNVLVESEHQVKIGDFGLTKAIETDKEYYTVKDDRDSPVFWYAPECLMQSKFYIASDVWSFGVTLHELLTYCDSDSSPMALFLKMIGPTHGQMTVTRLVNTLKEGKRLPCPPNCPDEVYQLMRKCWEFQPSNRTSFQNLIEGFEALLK
UniProt P06239: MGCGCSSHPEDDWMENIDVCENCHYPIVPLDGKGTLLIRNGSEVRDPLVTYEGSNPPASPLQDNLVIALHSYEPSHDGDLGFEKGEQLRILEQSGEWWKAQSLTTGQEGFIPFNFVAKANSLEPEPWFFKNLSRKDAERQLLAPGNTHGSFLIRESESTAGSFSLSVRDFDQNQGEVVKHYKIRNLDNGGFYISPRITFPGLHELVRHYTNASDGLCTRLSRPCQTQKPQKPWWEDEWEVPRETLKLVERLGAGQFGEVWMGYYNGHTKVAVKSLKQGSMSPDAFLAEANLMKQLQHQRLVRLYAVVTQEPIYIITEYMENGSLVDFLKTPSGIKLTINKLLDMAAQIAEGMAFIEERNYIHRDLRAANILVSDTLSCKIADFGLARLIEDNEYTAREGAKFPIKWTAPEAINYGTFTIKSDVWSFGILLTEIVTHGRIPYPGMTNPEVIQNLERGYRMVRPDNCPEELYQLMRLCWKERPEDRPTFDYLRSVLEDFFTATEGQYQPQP
UniProt P53667: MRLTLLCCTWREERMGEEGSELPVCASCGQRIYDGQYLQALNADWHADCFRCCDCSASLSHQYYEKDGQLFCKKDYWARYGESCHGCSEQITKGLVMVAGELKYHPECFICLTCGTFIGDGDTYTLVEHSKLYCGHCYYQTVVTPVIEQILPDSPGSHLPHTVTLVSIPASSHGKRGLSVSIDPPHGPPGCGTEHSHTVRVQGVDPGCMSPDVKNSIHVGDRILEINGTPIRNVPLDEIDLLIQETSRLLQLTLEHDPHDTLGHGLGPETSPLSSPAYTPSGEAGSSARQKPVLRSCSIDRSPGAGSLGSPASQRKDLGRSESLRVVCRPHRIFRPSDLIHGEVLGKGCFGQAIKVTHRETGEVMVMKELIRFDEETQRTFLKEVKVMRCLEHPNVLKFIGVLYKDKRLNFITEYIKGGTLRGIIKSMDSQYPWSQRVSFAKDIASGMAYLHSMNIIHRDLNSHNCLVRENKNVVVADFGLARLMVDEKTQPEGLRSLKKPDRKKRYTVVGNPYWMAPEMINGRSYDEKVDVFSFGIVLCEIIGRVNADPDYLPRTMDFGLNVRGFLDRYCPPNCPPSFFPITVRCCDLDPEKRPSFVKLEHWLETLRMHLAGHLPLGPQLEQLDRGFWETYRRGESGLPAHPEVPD
UniProt P53671: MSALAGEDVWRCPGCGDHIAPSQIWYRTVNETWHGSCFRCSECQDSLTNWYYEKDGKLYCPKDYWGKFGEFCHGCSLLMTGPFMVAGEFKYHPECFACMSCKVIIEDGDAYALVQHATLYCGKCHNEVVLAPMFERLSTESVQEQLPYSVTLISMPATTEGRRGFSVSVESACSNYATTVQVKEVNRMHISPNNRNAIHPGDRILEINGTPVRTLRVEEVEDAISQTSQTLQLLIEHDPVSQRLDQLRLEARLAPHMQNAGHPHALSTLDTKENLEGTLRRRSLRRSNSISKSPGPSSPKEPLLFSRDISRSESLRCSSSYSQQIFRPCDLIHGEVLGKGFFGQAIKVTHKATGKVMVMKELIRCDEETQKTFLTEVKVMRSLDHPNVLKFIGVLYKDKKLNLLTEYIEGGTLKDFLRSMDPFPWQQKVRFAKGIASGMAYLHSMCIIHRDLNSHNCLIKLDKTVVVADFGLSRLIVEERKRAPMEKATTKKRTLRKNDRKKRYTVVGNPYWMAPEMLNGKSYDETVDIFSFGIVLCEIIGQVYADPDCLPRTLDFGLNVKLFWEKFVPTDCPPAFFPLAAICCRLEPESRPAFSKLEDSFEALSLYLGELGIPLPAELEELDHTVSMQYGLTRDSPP
UniProt P07948: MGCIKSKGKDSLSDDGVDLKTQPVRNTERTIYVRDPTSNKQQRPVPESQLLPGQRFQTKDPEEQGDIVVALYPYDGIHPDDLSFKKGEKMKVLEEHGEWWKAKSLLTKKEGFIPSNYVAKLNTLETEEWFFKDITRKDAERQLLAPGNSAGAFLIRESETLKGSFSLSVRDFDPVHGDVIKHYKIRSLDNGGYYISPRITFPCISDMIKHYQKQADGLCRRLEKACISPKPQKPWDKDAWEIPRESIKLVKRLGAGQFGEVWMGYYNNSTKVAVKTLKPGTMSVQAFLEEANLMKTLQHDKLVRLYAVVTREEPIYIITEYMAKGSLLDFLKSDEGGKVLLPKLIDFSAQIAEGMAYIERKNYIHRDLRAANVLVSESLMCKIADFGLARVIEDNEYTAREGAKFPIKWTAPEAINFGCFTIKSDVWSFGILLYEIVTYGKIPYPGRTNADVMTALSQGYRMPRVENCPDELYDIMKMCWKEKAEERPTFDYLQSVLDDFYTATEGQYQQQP
UniProt P28482, whole entry: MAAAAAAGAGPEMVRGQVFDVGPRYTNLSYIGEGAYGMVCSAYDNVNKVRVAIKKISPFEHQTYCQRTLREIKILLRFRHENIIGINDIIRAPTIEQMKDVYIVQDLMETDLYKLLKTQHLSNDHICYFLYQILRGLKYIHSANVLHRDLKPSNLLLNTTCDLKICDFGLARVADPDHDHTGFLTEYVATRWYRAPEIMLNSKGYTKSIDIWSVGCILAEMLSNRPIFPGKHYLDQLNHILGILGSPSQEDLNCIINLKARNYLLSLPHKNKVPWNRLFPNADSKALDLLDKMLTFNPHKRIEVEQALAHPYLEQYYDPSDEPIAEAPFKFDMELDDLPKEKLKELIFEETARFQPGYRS
UniProt P49137, whole entry, looked up: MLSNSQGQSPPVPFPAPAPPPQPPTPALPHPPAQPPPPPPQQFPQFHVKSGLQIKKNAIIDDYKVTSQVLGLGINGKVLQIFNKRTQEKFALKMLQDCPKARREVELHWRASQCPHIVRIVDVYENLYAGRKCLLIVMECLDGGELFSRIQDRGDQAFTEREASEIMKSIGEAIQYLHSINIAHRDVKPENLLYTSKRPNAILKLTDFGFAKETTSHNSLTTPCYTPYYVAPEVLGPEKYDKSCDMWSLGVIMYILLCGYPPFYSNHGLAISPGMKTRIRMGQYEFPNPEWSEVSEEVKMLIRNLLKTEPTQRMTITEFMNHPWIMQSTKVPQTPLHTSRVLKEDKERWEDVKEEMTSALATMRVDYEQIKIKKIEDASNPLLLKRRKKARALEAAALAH
UniProt Q16620, whole entry, looked up: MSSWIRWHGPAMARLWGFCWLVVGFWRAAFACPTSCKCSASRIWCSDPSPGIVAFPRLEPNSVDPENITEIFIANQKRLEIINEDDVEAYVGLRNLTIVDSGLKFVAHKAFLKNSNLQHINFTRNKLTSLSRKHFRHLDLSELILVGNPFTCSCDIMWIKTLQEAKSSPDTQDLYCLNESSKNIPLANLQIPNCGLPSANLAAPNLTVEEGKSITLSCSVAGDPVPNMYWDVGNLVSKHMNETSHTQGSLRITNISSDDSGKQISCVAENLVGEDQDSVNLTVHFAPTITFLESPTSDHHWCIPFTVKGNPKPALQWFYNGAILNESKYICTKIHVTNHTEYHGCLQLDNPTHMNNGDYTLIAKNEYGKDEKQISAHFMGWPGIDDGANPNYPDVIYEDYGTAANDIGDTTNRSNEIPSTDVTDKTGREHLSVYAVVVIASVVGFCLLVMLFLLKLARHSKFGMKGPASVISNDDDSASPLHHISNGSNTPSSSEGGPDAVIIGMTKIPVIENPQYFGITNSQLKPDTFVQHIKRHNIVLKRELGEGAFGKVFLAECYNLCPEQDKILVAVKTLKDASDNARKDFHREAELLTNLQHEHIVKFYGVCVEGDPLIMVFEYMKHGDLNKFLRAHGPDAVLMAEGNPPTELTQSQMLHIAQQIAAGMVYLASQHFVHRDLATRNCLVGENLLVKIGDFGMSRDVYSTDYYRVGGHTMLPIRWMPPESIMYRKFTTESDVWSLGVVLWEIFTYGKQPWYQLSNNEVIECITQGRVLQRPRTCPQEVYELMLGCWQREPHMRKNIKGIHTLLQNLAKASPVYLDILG
UniProt Q96KB5: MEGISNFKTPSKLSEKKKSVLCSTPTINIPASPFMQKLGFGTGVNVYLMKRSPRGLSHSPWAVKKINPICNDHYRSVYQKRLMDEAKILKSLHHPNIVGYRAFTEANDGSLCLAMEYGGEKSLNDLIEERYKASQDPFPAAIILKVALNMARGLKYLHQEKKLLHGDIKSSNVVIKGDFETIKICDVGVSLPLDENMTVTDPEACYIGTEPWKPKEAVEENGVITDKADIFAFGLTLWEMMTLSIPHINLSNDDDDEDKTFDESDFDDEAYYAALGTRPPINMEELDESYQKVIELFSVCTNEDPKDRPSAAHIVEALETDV
UniProt P09619, whole entry: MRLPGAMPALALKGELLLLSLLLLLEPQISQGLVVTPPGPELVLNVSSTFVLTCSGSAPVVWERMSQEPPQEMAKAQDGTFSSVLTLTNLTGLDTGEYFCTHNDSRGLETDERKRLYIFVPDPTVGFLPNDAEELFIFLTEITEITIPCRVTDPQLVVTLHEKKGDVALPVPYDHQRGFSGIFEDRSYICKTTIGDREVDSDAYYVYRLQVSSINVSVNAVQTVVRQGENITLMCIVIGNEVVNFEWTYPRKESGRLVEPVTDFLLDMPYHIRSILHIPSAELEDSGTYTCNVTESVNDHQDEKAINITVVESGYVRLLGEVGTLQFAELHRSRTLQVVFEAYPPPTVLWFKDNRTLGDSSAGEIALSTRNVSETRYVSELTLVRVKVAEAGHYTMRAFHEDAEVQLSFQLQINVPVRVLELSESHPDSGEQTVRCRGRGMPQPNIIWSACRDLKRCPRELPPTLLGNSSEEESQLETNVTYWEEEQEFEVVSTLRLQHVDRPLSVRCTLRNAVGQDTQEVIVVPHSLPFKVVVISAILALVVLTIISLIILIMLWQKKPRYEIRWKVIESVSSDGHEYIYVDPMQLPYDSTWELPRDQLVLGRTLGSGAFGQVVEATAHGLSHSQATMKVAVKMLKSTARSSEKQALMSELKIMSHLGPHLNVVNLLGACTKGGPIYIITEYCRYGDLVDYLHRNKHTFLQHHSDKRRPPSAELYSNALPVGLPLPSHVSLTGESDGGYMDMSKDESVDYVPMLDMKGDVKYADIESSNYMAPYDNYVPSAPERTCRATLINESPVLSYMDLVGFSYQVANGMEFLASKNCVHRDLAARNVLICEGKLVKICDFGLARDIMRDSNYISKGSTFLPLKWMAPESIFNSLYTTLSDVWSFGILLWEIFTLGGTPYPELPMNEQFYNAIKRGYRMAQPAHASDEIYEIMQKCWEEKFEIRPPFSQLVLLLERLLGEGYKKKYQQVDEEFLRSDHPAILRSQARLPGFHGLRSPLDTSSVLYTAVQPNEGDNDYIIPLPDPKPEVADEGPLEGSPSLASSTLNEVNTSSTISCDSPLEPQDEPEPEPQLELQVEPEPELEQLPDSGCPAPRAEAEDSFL

How the values were obtained:
Assay in all cases: kinase-Nluc reporter destabilization hit call (1 = scored as downregulated) (binary); higher = compound decreases kinase abundance
Conditions in all cases: K562; 2-18 h
[1] = target: IRAK3 (UniProt Q9Y616)
[2] = target: JAK1 (UniProt P23458)
[3] = target: LCK (UniProt P06239)
[4] = target: LIMK1 (UniProt P53667)
[5] = target: LIMK2 (UniProt P53671)
[6] = target: LMTK2 (UniProt Q8IWU2)
[7] = target: LYN (UniProt P07948)
[8] = target: MAP2K1 (UniProt Q02750)
[9] = target: MAP2K2 (UniProt P36507)
[10] = target: MAP4K2 (UniProt Q12851)
[11] = target: MAPK1 (UniProt P28482)
[12] = target: MAPK4 (UniProt P31152)
[13] = target: MAPKAPK2 (UniProt P49137)
[14] = target: MKNK1 (UniProt Q9BUB5)
[15] = target: NTRK2 (UniProt Q16620)
[16] = target: NTRK3 (UniProt Q16288)
[17] = target: PAK4 (UniProt O96013)
[18] = target: PBK (UniProt Q96KB5)
[19] = target: PDGFRB (UniProt P09619)
[20] = target: PDK1 (UniProt Q15118)

Measured: kinase-Nluc reporter destabilization hit call

O=c1[nH]nc(Sc2ncc([N+](=O)[O-])s2)n1-c1ccc2c(c1)OCCO2 (2.5 µM)
inactive: [1] 0 | [2] 0 | [3] 0 | [4] 0 | [5] 0 | [6] 0 | [7] 0 | [8] 0 | [9] 0 | [10] 0 | [11] 0 | [12] 0 | [13] 0 | [14] 0 | [15] 0 | [16] 0 | [17] 0 | [18] 0 | [19] 0 | [20] 0

Cc1nc(NC(=O)N2CCC[C@H]2C(N)=O)sc1-c1csc(C(C)(C)C)n1 (10 µM)
inactive: [1] 0 | [2] 0 | [3] 0 | [4] 0 | [5] 0 | [6] 0 | [7] 0 | [8] 0 | [9] 0 | [10] 0 | [11] 0 | [12] 0 | [13] 0 | [14] 0 | [15] 0 | [16] 0 | [17] 0 | [18] 0 | [19] 0 | [20] 0

CC(=O)c1cc(O)ccc1O [2,5-Dihydroxyacetophenone] (10 µM)
inactive: [1] 0 | [2] 0 | [3] 0 | [4] 0 | [5] 0 | [6] 0 | [7] 0 | [8] 0 | [9] 0 | [10] 0 | [11] 0 | [12] 0 | [13] 0 | [14] 0 | [15] 0 | [16] 0 | [17] 0 | [18] 0 | [19] 0 | [20] 0

Oc1ccc2ccccc2c1SSc1c(O)ccc2ccccc12 (10 µM)
inactive: [1] 0 | [2] 0 | [3] 0 | [4] 0 | [5] 0 | [6] 0 | [7] 0 | [8] 0 | [9] 0 | [10] 0 | [11] 0 | [12] 0 | [13] 0 | [14] 0 | [15] 0 | [16] 0 | [17] 0 | [18] 0 | [19] 0 | [20] 0

OCCC#Cc1nc(-c2ccc(F)cc2)c(-c2ccncc2)n1CCCc1ccccc1 (2.5 µM)
inactive: [1] 0 | [2] 0 | [3] 0 | [4] 0 | [5] 0 | [6] 0 | [7] 0 | [8] 0 | [9] 0 | [10] 0 | [11] 0 | [12] 0 | [13] 0 | [14] 0 | [15] 0 | [16] 0 | [17] 0 | [18] 0 | [19] 0 | [20] 0

COC(=O)[C@]1(C)CC[C@]2(C(=O)O[C@@H]3O[C@H](CO)[C@@H](O)[C@H](O)[C@H]3O)CC[C@]3(C)C(=CC[C@@H]4[C@@]5(C)C[C@H](O)[C@H](O[C@@H]6OC[C@@H](O[C@@H]7O[C@H](CO)[C@@H](O)[C@H](O)[C@H]7O)[C@H](O)[C@H]6O)[C@@](C)(CO)C5CC[C@]43C)[C@H]2C1 (stereo not given in full) [Esculentoside H] (10 µM)
inactive: [1] 0 | [2] 0 | [3] 0 | [4] 0 | [5] 0 | [6] 0 | [7] 0 | [8] 0 | [9] 0 | [10] 0 | [11] 0 | [12] 0 | [13] 0 | [14] 0 | [15] 0 | [16] 0 | [17] 0 | [18] 0 | [19] 0 | [20] 0

COC(=O)c1cc2c(OC(C)C)cc(OC(C)C)cc2[nH]1 (2.5 µM)
inactive: [1] 0 | [2] 0 | [3] 0 | [4] 0 | [5] 0 | [6] 0 | [7] 0 | [8] 0 | [9] 0 | [10] 0 | [11] 0 | [12] 0 | [13] 0 | [14] 0 | [15] 0 | [16] 0 | [17] 0 | [18] 0 | [19] 0 | [20] 0

N#Cc1cn([C@@H]2O[C@H](CO)[C@@H](O)[C@H]2O)c2nc[nH]c(=O)c12 [Jaspamycin] (10 µM)
inactive: [1] 0 | [2] 0 | [3] 0 | [4] 0 | [5] 0 | [6] 0 | [7] 0 | [8] 0 | [9] 0 | [10] 0 | [11] 0 | [12] 0 | [13] 0 | [14] 0 | [15] 0 | [16] 0 | [17] 0 | [18] 0 | [19] 0 | [20] 0

3 structures out of the list, arranged by formula weight, rising:
COC(=O)c1cc2c(OC(C)C)cc(OC(C)C)cc2[nH]1 (2.5 µM)
inactive: [1] 0 | [2] 0 | [3] 0 | [4] 0 | [5] 0 | [6] 0 | [7] 0 | [8] 0 | [9] 0 | [10] 0 | [11] 0 | [12] 0 | [13] 0 | [14] 0 | [15] 0 | [16] 0 | [17] 0 | [18] 0 | [19] 0 | [20] 0

Oc1ccc2ccccc2c1SSc1c(O)ccc2ccccc12 (10 µM)
inactive: [1] 0 | [2] 0 | [3] 0 | [4] 0 | [5] 0 | [6] 0 | [7] 0 | [8] 0 | [9] 0 | [10] 0 | [11] 0 | [12] 0 | [13] 0 | [14] 0 | [15] 0 | [16] 0 | [17] 0 | [18] 0 | [19] 0 | [20] 0

COC(=O)[C@]1(C)CC[C@]2(C(=O)O[C@@H]3O[C@H](CO)[C@@H](O)[C@H](O)[C@H]3O)CC[C@]3(C)C(=CC[C@@H]4[C@@]5(C)C[C@H](O)[C@H](O[C@@H]6OC[C@@H](O[C@@H]7O[C@H](CO)[C@@H](O)[C@H](O)[C@H]7O)[C@H](O)[C@H]6O)[C@@](C)(CO)C5CC[C@]43C)[C@H]2C1 (stereo not given in full) [Esculentoside H] (10 µM)
inactive: [1] 0 | [2] 0 | [3] 0 | [4] 0 | [5] 0 | [6] 0 | [7] 0 | [8] 0 | [9] 0 | [10] 0 | [11] 0 | [12] 0 | [13] 0 | [14] 0 | [15] 0 | [16] 0 | [17] 0 | [18] 0 | [19] 0 | [20] 0

Next part:

COc1ccc(COc2cc3oc(=O)c4cc(C(C)O)ccc4c3cc2OC)cc1 (stereo not given) [Palomid 529] (2.5 µM)
inactive: [1] 0 | [2] 0 | [3] 0 | [4] 0 | [5] 0 | [6] 0 | [7] 0 | [8] 0 | [9] 0 | [10] 0 | [11] 0 | [12] 0 | [13] 0 | [14] 0 | [15] 0 | [16] 0 | [17] 0 | [18] 0 | [19] 0 | [20] 0

CCc1ccc(NC(=O)Nc2ccccc2)cc1 (10 µM)
inactive: [1] 0 | [2] 0 | [3] 0 | [4] 0 | [5] 0 | [6] 0 | [7] 0 | [8] 0 | [9] 0 | [10] 0 | [11] 0 | [12] 0 | [13] 0 | [14] 0 | [15] 0 | [16] 0 | [17] 0 | [18] 0 | [19] 0 | [20] 0

O=c1cc(-c2ccc(O)cc2)oc2cc(O)c([C@@H]3O[C@H](CO)[C@@H](O)[C@H](O)[C@H]3O)c(O)c12 [Isovitexin] (10 µM)
inactive: [1] 0 | [2] 0 | [3] 0 | [4] 0 | [5] 0 | [6] 0 | [7] 0 | [8] 0 | [9] 0 | [10] 0 | [11] 0 | [12] 0 | [13] 0 | [14] 0 | [15] 0 | [16] 0 | [17] 0 | [18] 0 | [19] 0 | [20] 0

CC(C)n1cnnc1-c1cccc(NC(=O)c2cc3ccc(F)cc3[nH]2)n1 (2.5 µM)
inactive: [1] 0 | [2] 0 | [3] 0 | [4] 0 | [5] 0 | [6] 0 | [7] 0 | [8] 0 | [9] 0 | [10] 0 | [11] 0 | [12] 0 | [13] 0 | [14] 0 | [15] 0 | [16] 0 | [17] 0 | [18] 0 | [19] 0 | [20] 0

O=C(NCc1cccc(O)c1)c1cc2cc(F)ccc2[nH]1 (10 µM)
inactive: [1] 0 | [2] 0 | [3] 0 | [4] 0 | [5] 0 | [6] 0 | [7] 0 | [8] 0 | [9] 0 | [10] 0 | [11] 0 | [12] 0 | [13] 0 | [14] 0 | [15] 0 | [16] 0 | [17] 0 | [18] 0 | [19] 0 | [20] 0

C1=N/C2=N/c3ccc(OCCN4CCCC4)c(c3)COC/C=C/COCc3cccc(c3)C(=C1)N2 [Pacritinib] (2.5 µM)
inactive: [1] 0 | [2] 0 | [3] 0 | [4] 0 | [5] 0 | [6] 0 | [7] 0 | [8] 0 | [9] 0 | [10] 0 | [11] 0 | [12] 0 | [13] 0 | [14] 0 | [15] 0 | [16] 0 | [17] 0 | [18] 0 | [19] 0 | [20] 0

COc1cc(OC)c(/C=C/S(=O)(=O)Cc2ccc(OC)c(NCC(=O)O)c2)c(OC)c1 [Rigosertib (sodium)] (10 µM)
inactive: [1] 0 | [2] 0 | [3] 0 | [4] 0 | [5] 0 | [6] 0 | [7] 0 | [8] 0 | [9] 0 | [10] 0 | [11] 0 | [12] 0 | [13] 0 | [14] 0 | [15] 0 | [16] 0 | [17] 0 | [18] 0 | [19] 0 | [20] 0

CCCCNc1ncc2c(-c3ccc(CN4CCN(C)CC4)cc3)cn([C@H]3CC[C@H](O)CC3)c2n1 [UNC2025 (hydrochloride)] (2.5 µM)
inactive: [1] 0 | [2] 0 | [3] 0 | [4] 0 | [5] 0 | [6] 0 | [7] 0 | [8] 0 | [9] 0 | [10] 0 | [11] 0 | [12] 0 | [13] 0 | [14] 0 | [15] 0 | [16] 0 | [17] 0 | [18] 0 | [19] 0 | [20] 0
